According to PubChem BioAssay AID1487 (National Center for Advancing Translational Sciences (NCATS), 2009):
Some of the results follow. Further columns of the screen follow, without active or inactive calls. The list favours compounds with an active or inconclusive main result. Words in brackets tell the shape of the fitted curve; partial curves, single points and poor fits give uncertain potencies.

Experiment: qHTS Assay for Modulators of Lamin A Splicing
Settings: HeLa LMNA splicing GFP/RFP minigene ratio, 48 h
How it was run: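 S3 HeLa stable clones carrying a lamin A-EGFP splicing minigene plus DsRed2 were seeded at 600 cells/well in Opti-MEM with 2% FBS, pin-dosed and incubated 48 h at 37°C. Acumen cytometry (488 nm) gave the GFP/RFP total-intensity ratio.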

[1] = measured here: GFP splicing reporter channel
[2] = measured here: RFP viability control channel

Row | SMILES | AC50 [1] | AC50 [2]
1 | COC(=O)Nc1ccc(S(=O)(=O)N2CCC(C(=O)N(C)C3CCCCC3)CC2)cc1 | 0.00398 µM [rising, full curve, poor fit] | 
2 | CC1(C)OC(=O)C(=NNc2ccc(Br)cc2)C(=O)O1 | 3.16 µM [rising, single point] | 12.6 µM [rising, single point]
3 | CCOC(=O)CC(=O)CSc1nc2ccccc2c(=O)n1CCc1ccc(S(N)(=O)=O)cc1 | 12.6 µM [falling, single point] | 15.8 µM [falling, single point]
4 | O=S(=O)(c1ccc2c(c1)OCCO2)N1CCC(n2cnc3cc(F)ccc32)CC1 | 0.00891 µM [rising, full curve, poor fit] | 12.6 µM [rising, partial curve]
5 | CC1CCCCN1CCCNC(=O)c1cc(Sc2ccc(Cl)cc2)nc2ccccc12 (stereo unspecified) |  | 17.8 µM [rising, partial curve, poor fit]
6 | O=C1c2cccc3cccc(c23)C(=O)N1/N=C/c1ccc(O)cc1O | 35.5 µM [rising, single point] | 35.5 µM [rising, single point]
7 | Cc1nc2cc(-c3ccccc3)sc2c(=O)n1N | 8.91 µM [rising, partial curve] | 
8 | CC12CCC(C(=O)Nc3nc4ccc(Br)cc4s3)(OC1=O)C2(C)C (stereo unspecified) | 14.1 µM [rising, single point] | 
9 | O=c1c2ccccc2nc(-c2ccco2)n1Cc1ccccc1 | 7.94 µM [rising, partial curve, poor fit] | 8.91 µM [rising, partial curve, poor fit]
10 | O=c1cc(O)c2sc(Nc3ccc(F)c(Cl)c3)nc2[nH]1 | 35.5 µM [rising, single point] | 
11 | O=C(Nc1cccc(Cl)c1)c1ccc(F)c(S(=O)(=O)N2CCN(c3ccccn3)CC2)c1 | 7.08 µM [rising, partial curve] | 11.2 µM [rising, partial curve]
12 | CCn1c(C)cc(/C=C2/NC(=O)N(Cc3ccccc3F)C2=O)c1C | 5.01 µM [rising, partial curve] | 
13 | O=C(CSc1nnc(-c2ccccc2)c(-c2ccccc2)n1)NC1CCS(=O)(=O)C1 (stereo unspecified) |  | 7.94 µM [rising, partial curve]
14 | CSc1nc(-c2ccc(Cl)cc2Cl)[nH]c(=O)c1C#N | 8.91 µM [rising, partial curve, poor fit] | 11.2 µM [rising, partial curve]
15 | O=C(NC(=S)Nc1ccccc1N1CCCCC1)c1ccccc1 |  | 20 µM [rising, partial curve, poor fit]
16 | CCCCNC(=O)c1onc(CSc2ccc(C)c(C)c2)c1C(=O)O | 25.1 µM [rising, single point] | 20 µM [rising, single point]
17 | O=C(Nc1nccs1)c1ccc2c(=O)n3c(nc2c1)CCCCC3 |  | 7.08 µM [rising, full curve]
18 | CN=C(c1ccc(C)cc1)n1c(=S)nc(-c2ccc(C)cc2)n(C)c1=S | 12.6 µM [falling, partial curve, poor fit] | 28.2 µM [falling, partial curve]
19 | COc1ccc(-c2nc(C)c(CCNC(=O)C(=O)Nc3cc(C)cc(C)c3)s2)cc1OC | 20 µM [falling, partial curve, poor fit] | 17.8 µM [falling, single point]

Sorted by SMILES length (smallest number first): some entries from above.
Row | SMILES | AC50 [1] | AC50 [2]
9 | O=c1c2ccccc2nc(-c2ccco2)n1Cc1ccccc1 | 7.94 µM [rising, partial curve, poor fit] | 8.91 µM [rising, partial curve, poor fit]
14 | CSc1nc(-c2ccc(Cl)cc2Cl)[nH]c(=O)c1C#N | 8.91 µM [rising, partial curve, poor fit] | 11.2 µM [rising, partial curve]
11 | O=C(Nc1cccc(Cl)c1)c1ccc(F)c(S(=O)(=O)N2CCN(c3ccccn3)CC2)c1 | 7.08 µM [rising, partial curve] | 11.2 µM [rising, partial curve]

More structures follow:

Row | SMILES | AC50 [1] | AC50 [2]
20 | CCc1nc2ccccc2n1Cc1ccccc1OC | 2.82 µM [rising, full curve, poor fit] | 7.94 µM [rising, partial curve]
21 | O=C(c1ccco1)N1CCC(c2nc(-c3ccc(F)cc3)no2)CC1 | 35.5 µM [rising, single point] | 31.6 µM [rising, single point]
22 | c1ccc(Cn2nnc3c(N4CCN(Cc5ccc6c(c5)OCO6)CC4)ncnc32)cc1 |  | 12.6 µM [rising, single point]
23 | O=c1oc2ccccc2c(Nc2ccc3ccccc3c2)c1[N+](=O)[O-] | 10 µM [falling, partial curve, poor fit] | 10 µM [falling, partial curve]
24 | CN(C)CCNC(=O)c1cc2sc3ccccc3c2s1 |  | 0.1 µM [falling, full curve, poor fit]
25 | COc1cc2nc(CSc3ncn[nH]3)[nH]c(=O)c2cc1OC |  | 7.08 µM [rising, partial curve, poor fit]
26 | O=C(c1ccco1)N(CC1CCCO1)c1nc(-c2ccccc2)cs1 (stereo unspecified) |  | 12.6 µM [rising, partial curve]
27 | c1ccc(CCc2nc(-c3ccc(-n4cccc4)cc3)no2)cc1 |  | 31.6 µM [rising, single point]
28 | COc1ccc(N2C(=O)C(Cl)=C(Oc3cccc(OC)c3)C2=O)cc1 | 5.62 µM [falling, partial curve] | 10 µM [falling, partial curve, poor fit]
29 | O=C(NCCc1ccc2c(c1)OCCO2)c1cccc(F)c1 |  | 11.2 µM [rising, partial curve]
30 | CCCn1c(C(O)c2ccc(OCC)cc2)nc2ccccc21 (stereo unspecified) |  | 15.8 µM [rising, partial curve]
31 | COc1cccc(/C=N/NC(=O)C(=O)NCc2ccco2)c1O |  | 17.8 µM [rising, single point]
32 | Cc1ccsc1/C=N/NC(=O)CN1CCN(S(=O)(=O)c2ccc(Br)cc2)CC1 |  | 31.6 µM [rising, single point]
33 | CCn1cc(C(=O)NCc2ccc3c(c2)OCO3)c(=O)c2cc(F)c(N3CCN(C(=O)c4ccco4)CC3)cc21 | 7.94 µM [rising, partial curve, poor fit] | 7.94 µM [rising, partial curve, poor fit]
34 | O=S(=O)(c1ccc(OCC(O)CN2CCN(c3ccc(F)cc3)CC2)cc1)N1CCOCC1 (stereo unspecified) |  | 14.1 µM [rising, partial curve]
35 | O=C(c1ccc(COc2ccccc2Br)o1)N1N=C(C(F)F)CC1(O)C(F)F (stereo unspecified) |  | 35.5 µM [rising, single point]
36 | CN(C)c1nc(N)c([N+](=O)[O-])c(NCc2ccccc2)n1 | 4.47 µM [falling, full curve, poor fit] | 5.01 µM [falling, full curve, poor fit]
37 | O=C(CSc1ccc(-c2cccs2)nn1)Nc1ccccc1F | 0.141 µM [rising, full curve] | 0.178 µM [rising, full curve]
38 | O=C(Nc1ccc2nc(SCC(=O)N3CCCC3)sc2c1)c1cccc(Cl)c1 |  | 17.8 µM [rising, partial curve]

Row | SMILES | AC50 [1] | AC50 [2]
39 | Cc1nc(SC(C)C)[nH]c(=O)c1Cc1ccccc1 | 11.2 µM [rising, partial curve] | 
40 | O=C(Nc1ccccc1)N1N=C(c2ccc(F)cc2)CC1c1ccc(F)cc1 (stereo unspecified) | 12.6 µM [rising, single point] | 
41 | CC(C)C(=O)Nc1cccc(NC(=S)NC(=O)C(c2ccccc2)c2ccccc2)c1 | 25.1 µM [falling, single point] | 20 µM [falling, partial curve]
42 | CCCc1cc(=O)[nH]c(SCC(=O)c2ccc(S(=O)(=O)N3CCCC3)cc2)n1 | 31.6 µM [rising, single point] | 0.282 µM [falling, partial curve, poor fit]
43 | CCS(=O)(=O)Nc1cccc(C2=NN(S(=O)(=O)c3ccc(C)cc3)C(c3cccs3)C2)c1 (stereo unspecified) |  | 17.8 µM [rising, single point]
44 | COc1cccc(-n2c(C)nn(CCOc3ccccc3)c2=O)c1 |  | 15.8 µM [rising, single point]
45 | Cc1ccsc1/C=C/c1ccc2cccc(O)c2n1 |  | 20 µM [rising, single point]
46 | Cn1c(=O)n(CC(=O)Nc2ccccc2)c2ccccc21 |  | 17.8 µM [rising, partial curve]
47 | O=C(CSc1nnc(SCc2ccc(Cl)cc2)s1)c1ccc2c(c1)OCO2 |  | 22.4 µM [rising, single point]
48 | COc1ccccc1NC(=S)N(CCc1c(C)[nH]c2ccccc12)Cc1cccs1 |  | 10 µM [rising, single point]
49 | COc1ccc(C(C)=O)cc1COC(=O)c1cccc(N(C)C)c1 | 5.62 µM [rising, single point] | 
50 | CCCCC(=O)NC(=S)Nc1ccccc1N1CCCCC1 | 11.2 µM [rising, partial curve] | 15.8 µM [rising, single point]
51 | CCCCC(=O)Nc1cccn2ncnc12 | 0.00794 µM [rising, full curve] | 
52 | O=C(CCSc1ccc(Cl)cc1)c1cccs1 |  | 35.5 µM [rising, single point]
53 | O=C(Nc1nccs1)c1ccc(COc2ccc(Cl)cc2)o1 | 31.6 µM [rising, single point] | 
54 | Cc1cccc(-n2ccnc2SCC(=O)Nc2cccc3ccccc23)c1C | 35.5 µM [falling, single point] | 
55 | COc1cc(NC(=O)c2ccc3c(=O)n(Cc4ccco4)c(=S)[nH]c3c2)cc(OC)c1OC |  | 25.1 µM [falling, single point]
56 | CCn1c(=O)c(C(=O)NNS(=O)(=O)c2ccc(Cl)cc2)c(O)c2ccccc21 |  | 35.5 µM [rising, single point]
